Patent publication US12201593B2, “Oral pharmaceutical formulations of bitter compounds for asthma” (Aardvark Therapeutics Inc., priority 2018, dated 2025)

System: primary human smooth muscle (HASM) cells
Test: FLECS bronchodilator assay: single-cell contractility of HASM cells after bradykinin/carbachol-induced contraction
Assay type: cell-based
Conditions: given after time-point 5 following BK exposure
Description: FIGS. 1A, 1B, and 1C show the bronchodilator assay workflow with a […] of FLECS. Each well holds ˜1,200 micro-patterns for sensing force-generation by single cells. […] The two cases represent the positive and negative controls for the assay.
An in vitro model using human airway smooth muscle cells (HASM) from both asthmatic patients and “normal” non-asthmatic humans was stimulated to contract with bradykinin.
The assay investigated bronchodilatation properties of bitter taste agonists, individually and in combination, administered to primary human smooth muscle (HASM) cells after inducing contraction with asthmatic agent bradykinin. HASM cells were obtained from asthmatic patients and “normal” or non-asthmatic patients. Each of 4 primary HASM cell lines (2 from healthy donors; 2 from asthmatic donors) were seeded on FLECSplates and were stimulated to contract via exposure to bradykinin (BK) or carbachol. […] Accordingly, at 15 minutes following exposure to BK, the cells were treated with a denatonium salt or 3-CQL for Example 1, or combinations thereof, as well as positive controls and negative controls. The cells were imaged at 5 minute intervals beginning with a baseline reading, out to 45 minutes. The measurement was attenuation of population wide BK-induced contractility by treatment of a test compound (or combination) relative to controls. […]

## COc1ccc(CC(C)NCC(O)c2ccc(O)c(NC=O)c2)cc1 (stereo not shown) [formoterol, Formoterol]
  effect on bradykinin-induced contraction (FIG. 1, positive control): halt and reversal in the contraction
